For 7 molecules, binding results are on record in doi:10.1101/2022.10.05.510992.

No constants are given. Whether binding was seen depends on the method and setting. In cells and extracts the contact can be indirect. A yes stands for co-enrichment or nearness to the bait. Other partners may have been found. Where a sequence is shown, tags or fusion partners need not be part of it.

The labels stand for the following.
B1: p120 catenin (CTNND1) (protein, UniProt O60716 1-968)
chain: MDDSEVESTASILASVKEQEAQFEKLTRALEEERRHVSAQLERVRVSPQDANPLMANGTLTRRHQNGRFVGDADLERQKFSDLKLNGPQDHSHLLYSTIPRMQEPGQIVETYTEEDPEGAMSVVSVETSDDGTTRRTETTVKKVVKTVTTRTVQPVAMGPDGLPVDASSVSNNYIQTLGRDFRKNGNGGPGPYVGQAGTATLPRNFHYPPDGYSRHYEDGYPGGSDNYGSLSRVTRIEERYRPSMEGYRAPSRQDVYGPQPQVRVGGSSVDLHRFHPEPYGLEDDQRSMGYDDLDYGMMSDYGTARRTGTPSDPRRRLRSYEDMIGEEVPSDQYYWAPLAQHERGSLASLDSLRKGGPPPPNWRQPELPEVIAMLGFRLDAVKSNAAAYLQHLCYRNDKVKTDVRKLKGIPVLVGLLDHPKKEVHLGACGALKNISFGRDQDNKIAIKNCDGVPALVRLLRKARDMDLTEVITGTLWNLSSHDSIKMEIVDHALHALTDEVIIPHSGWEREPNEDCKPRHIEWESVLTNTAGCLRNVSSERSEARRKLRECDGLVDALIFIVQAEIGQKDSDSKLVENCVCLLRNLSYQVHREIPQAERYQEAAPNVANNTGPHAASCFGAKKGKDEWFSRGKKPIEDPANDTVDFPKRTSPARGYELLFQPEVVRIYISLLKESKTPAILEASAGAIQNLCAGRWTYGRYIRSALRQEKALSAIADLLTNEHERVVKAASGALRNLAVDARNKELIGKHAIPNLVKNLPGGQQNSSWNFSEDTVISILNTINEVIAENLEAAKKLRETQGIEKLVLINKSGNRSEKEVRAAALVLQTIWGYKELRKPLEKEGWKKSDFQVNLNNASRSQSSHSYDDSTLPLIDRNQKSDKKPDREEIQMSNMGSNTKSLDNNYSTPNERGDHNRTLDRSGDLGDMEPLKGTTPLMQDEGQESLEEELDVLVLDDEGGQVSYPSMQKI
B2: AP-1μ2 (protein, UniProt Q9Y6Q5 1-423)
chain: MSASAVFILDVKGKPLISRNYKGDVAMSKIEHFMPLLVQREEEGALAPLLSHGQVHFLWIKHSNLYLVATTSKNANASLVYSFLYKTIEVFCEYFKELEEESIRDNFVIVYELLDELMDFGFPQTTDSKILQEYITQQSNKLETGKSRVPPTVTNAVSWRSEGIKYKKNEVFIDVIESVNLLVNANGSVLLSEIVGTIKLKVFLSGMPELRLGLNDRVLFELTGRSKNKSVELEDVKFHQCVRLSRFDNDRTISFIPPDGDFELMSYRLSTQVKPLIWIESVIEKFSHSRVEIMVKAKGQFKKQSVANGVEISVPVPSDADSPRFKTSVGSAKYVPERNVVIWSIKSFPGGKEYLMRAHFGLPSVEKEEVEGRPPIGVKFEIPYFTVSGIQVRYMKIIEKSGYQALPWVRYITQSGDYQLRTS
B3: intraflagellar transport protein 27 (IFT27), native in MCF-7 cells (protein, UniProt Q9BW83 1-186)
chain: MVKLAAKCILAGDPAVGKTALAQIFRSDGAHFQKSYTLTTGMDLVVKTVPVPDTGDSVELFIFDSAGKELFSEMLDKLWESPNVLCLVYDVTNEESFNNCSKWLEKARSQAPGISLPGVLVGNKTDLAGRRAVDSAEARAWALGQGLECFETSVKEMENFEAPFHCLAKQFHQLYREKVEVFRALA
B4: CEP135 (protein, UniProt Q66GS9 1-1140)
chain: MTTAVERKYINIRKRLDQLGYRQTLTVECLPLVEKLFSDLVHTTESLRQSKLSAVKAEKESANFDFVLEPYKLENARLSRENNELYLELMKLREHSDQHVKELKTSLKKCARETADLKFLNNQYAHKLKLLEKESKAKNERIQQLQEKNLHAVVQTPGGKKRSIAFRRQRMQIDEPVPPSEVSSYPVPQPDDPYIADLLQVADNRIQELQQEVHQLQEKLAMMESGVRDYSKQIELREREIERLSVALDGGRSPDVLSLESRNKTNEKLIAHLNIQVDFLQQANKDLEKRIRELMETKETVTSEVVNLSNKNEKLCQELTEIDQLAQQLERHKEEVLETADKELGEAKKEIKRKLSEMQDLEETMAKLQLELNLCQKEKERLSDELLVKSDLETVVHQLEQEKQRLSKKVESFAVTERQLTLEVERMRLEHGIKRRDRSPSRLDTFLKGIEEERDYYKKELERLQHIIQRRSCSTSYSAREKSSIFRTPEKGDYNSEIHQITRERDELQRMLERFEKYMEDIQSNVKLLTAERDKLSVLYNEAQEELSALRKESTQTTAPHNIVSLMEKEKELALSDLRRIMAEKEALREKLEHIEEVSLFGKSELEKTIEHLTCVNHQLESEKYELKSKVLIMKETIESLENKLKVQAQKFSHVAGDSSHQKTEVNSLRIVNEQLQRSVDDYQHRLSIKRGELESAQAQIKILEEKIDELNLKMTSQDEEAHVMKKTIGVIDKEKDFLQETVDEKTEKIANLQENLANKEKAVAQMKIMISECESSVNQLKETLVNRDREINSLRRQLDAAHKELDEVGRSREIAFKENRRLQDDLATMARENQEISLELEAAVQEKEEMKSRVHKYITEVSRWESLMAAKEKENQDLLDRFQMLHNRAEDWEVKAHQAEGESSSVRLELLSIDTERRHLRERVELLEKEIQEHINAHHAYESQISSMAKAMSRLEEELRHQEDEKATVLNDLSSLRELCIKLDSGKDIMTQQLNSKNLEFERVVVELENVKSESDLLKKQLSNERHTVKNLESLLATNRDKEFHSHLTSHEKDTEIQLLKEKLTLSESKLTSQSRENTMLRAKVAQLQTDYDALKRQISTERYERERAIQEMRRHGLATPPLSSTLRSPSHSPEHRNV
B5: α-catenin-2 (protein, UniProt P26232 1-953)
chain: MTSATSPIILKWDPKSLEIRTLTVERLLEPLVTQVTTLVNTSNKGPSGKKKGRSKKAHVLAASVEQATQNFLEKGEQIAKESQDLKEELVAAVEDVRKQGETMRIASSEFADDPCSSVKRGTMVRAARALLSAVTRLLILADMADVMRLLSHLKIVEEALEAVKNATNEQDLANRFKEFGKEMVKLNYVAARRQQELKDPHCRDEMAAARGALKKNATMLYTASQAFLRHPDVAATRANRDYVFKQVQEAIAGISNAAQATSPTDEAKGHTGIGELAAALNEFDNKIILDPMTFSEARFRPSLEERLESIISGAALMADSSCTRDDRRERIVAECNAVRQALQDLLSEYMNNTGRKEKGDPLNIAIDKMTKKTRDLRRQLRKAVMDHISDSFLETNVPLLVLIEAAKSGNEKEVKEYAQVFREHANKLVEVANLACSISNNEEGVKLVRMAATQIDSLCPQVINAALTLAARPQSKVAQDNMDVFKDQWEKQVRVLTEAVDDITSVDDFLSVSENHILEDVNKCVIALQEGDVDTLDRTAGAIRGRAARVIHIINAEMENYEAGVYTEKVLEATKLLSETVMPRFAEQVEVAIEALSANVPQPFEENEFIDASRLVYDGVRDIRKAVLMIRTPEELEDDSDFEQEDYDVRSRTSVQTEDDQLIAGQSARAIMAQLPQEEKAKIAEQVEIFHQEKSKLDAEVAKWDDSGNDIIVLAKQMCMIMMEMTDFTRGKGPLKNTSDVINAAKKIAEAGSRMDKLARAVADQCPDSACKQDLLAYLQRIALYCHQLNICSKVKAEVQNLGGELIVSGTGVQSTFTTFYEVDCDVIDGGRASQLSTHLPTCAEGAPIGSGSSDSSMLDSATSLIQAAKNLMNAVVLTVKASYVASTKYQKVYGTAAVNSPVVSWKMKAPEKKPLVKREKPEEFQTRVRRGSQKKHISPVQALSEFKAMDSF
B6: AP-1β (protein, UniProt Q10567 1-949)
chain: MTDSKYFTTTKKGEIFELKAELNSDKKEKKKEAVKKVIASMTVGKDVSALFPDVVNCMQTDNLELKKLVYLYLMNYAKSQPDMAIMAVNTFVKDCEDPNPLIRALAVRTMGCIRVDKITEYLCEPLRKCLKDEDPYVRKTAAVCVAKLHDINAQLVEDQGFLDTLKDLISDSNPMVVANAVAALSEIAESHPSSNLLDLNPQSINKLLTALNECTEWGQIFILDCLANYMPKDDREAQSICERVTPRLSHANSAVVLSAVKVLMKFMEMLSKDLDYYGTLLKKLAPPLVTLLSAEPELQYVALRNINLIVQKRPEILKHEMKVFFVKYNDPIYVKLEKLDIMIRLASQANIAQVLAELKEYATEVDVDFVRKAVRAIGRCAIKVEQSAERCVSTLLDLIQTKVNYVVQEAIVVIKDIFRKYPNKYESVIATLCENLDSLDEPEARAAMIWIVGEYAERIDNADELLESFLEGFHDESTQVQLQLLTAIVKLFLKKPTETQELVQQVLSLATQDSDNPDLRDRGYIYWRLLSTDPVAAKEVVLAEKPLISEETDLIEPTLLDELICYIGTLASVYHKPPSAFVEGGRGVVHKSLPPRTASSESAESPETAPTGAPPGEQPDVIPAQGDLLGDLLNLDLGPPVSGPPLATSSVQMGAVDLLGGGLDSLMGDEPEGIGGTNFVAPPTAAVPANLGAPIGSGLSDLFDLTSGVGTLSGSYVAPKAVWLPAMKAKGLEISGTFTRQVGSISMDLQLTNKALQVMTDFAIQFNRNSFGLAPAAPLQVHAPLSPNQTVEISLPLSTVGSVMKMEPLNNLQVAVKNNIDVFYFSTLYPLHILFVEDGKMDRQMFLATWKDIPNENEAQFQIRDCPLNAEAASSKLQSSNIFTVAKRNVEGQDMLYQSLKLTNGIWVLAELRIQPGNPSCTDLELSLKCRAPEVSQHVYQAYETILKN
B7: AP-1μ1 (protein, UniProt Q9BXS5 1-423)
chain: MSASAVYVLDLKGKVLICRNYRGDVDMSEVEHFMPILMEKEEEGMLSPILAHGGVRFMWIKHNNLYLVATSKKNACVSLVFSFLYKVVQVFSEYFKELEEESIRDNFVIIYELLDELMDFGYPQTTDSKILQEYITQEGHKLETGAPRPPATVTNAVSWRSEGIKYRKNEVFLDVIESVNLLVSANGNVLRSEIVGSIKMRVFLSGMPELRLGLNDKVLFDNTGRGKSKSVELEDVKFHQCVRLSRFENDRTISFIPPDGEFELMSYRLNTHVKPLIWIESVIEKHSHSRIEYMIKAKSQFKRRSTANNVEIHIPVPNDADSPKFKTTVGSVKWVPENSEIVWSIKSFPGGKEYLMRAHFGLPSVEAEDKEGKPPISVKFEIPYFTTSGIQVRYLKIIEKSGYQALPWVRYITQNGDYQLRTQ

For the assay, the target named is NBCn1 C-terminal tail (bait of the pull-down with mass spectrometry). Nature of the assay: affinity purification with mass spectrometry.
In the case of B1, the binding entry is reported as “binds”. Under B2 stands “binds”; under B3, “binds”. B4: the binding result is “binds”. Under B5 stands “binds”; under B6, “binds”; under B7, “binds”.
